Where “and” joins values, the source holds several entries; their conditions need not be identical. Equal values may be shown once. Some of the results follow. Shown are side measurements of this screen, not its main read-out; they come without a call. Most of these compounds were active or inconclusive in the main read-out, so they are no random draw. Words in brackets tell the shape of the fitted curve; partial curves, single points and poor fits give uncertain potencies.

These results are taken from PubChem BioAssay (NCATS).

A short description of the assay: qHTS for identification of novel therapeutic agents for treatment of microphthalmiaassociated transcription factor (MiT) renal cell carcinoma (RCC) (AID 1963991). The conditions noted are these: CellTiter-Glo, 48 h; for z-score: stronger effect = lower value. Put shortly:
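UOK109/UOK124/UOK145 (TFE3 fusions, three partners); 500 cells/well; MIPE v4.0, 1912 cpds, 11 conc.; 48 h, 37 C; CellTiter-Glo, 15 min RT; lum. Norm.: DMSO 100%, empty 0%.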

[1] abbreviates: TFE3-RCC UOK109 viability, measured here: UOK109 Z-AUC.
[2] abbreviates: TFE3-RCC viability, measured here: UOK124 Z-AUC.
The mark [3] stands for this setting: TFE3-RCC viability, measured here: UOK145 Z-AUC.
Where [4] appears, read: TFE3-RCC viability, measured here: UOK145 cell viability.
The mark [5] stands for this setting: TFE3-RCC viability, measured here: UOK124 cell viability.

Usually AC50 stands for the concentration at which the activity in the assay is half-maximal. With `CN(C[C@@H]1COCCO1)S(=O)(=O)Nc1ccc2ccc3ncc(-c4cnn(C)c4)cc3c(=O)c2c1`, the z-score was -0.165 under setting [1], 0.601 under setting [2] and -0.335 under setting [3]. The AC50 under setting [4] was 16.6 µM [falling, partial curve].
In the case of `CCOC1OC(=O)C[C@H]1NC(=O)[C@@H]1CCCN1C(=O)[C@@H](NC(=O)c1ccc(N)c(Cl)c1)C(C)(C)C` (stereo partly drawn), the z-score stood at 0.552 under setting [1], 0.676 under setting [2] and 0.742 under setting [3]. The AC50 under setting [4] was 37.2 µM [falling, partial curve, poor fit].
On to `CCOC(=O)C=C[C@H](C[C@@H]1CCNC1=O)NC(=O)[C@@H](CC(=O)[C@@H](NC(=O)c1cc(C)on1)C(C)C)Cc1ccc(F)cc1`, for which the z-score reads like this: under setting [1], 0.581; under setting [2], 0.674; under setting [3], -0.534. The AC50 under setting [4] is 0.935 µM [rising, full curve, poor fit].
With `COc1cc2nc(N(C)CCCNC(=O)C3CCCO3)nc(N)c2cc1OC` (stereo not drawn), the z-score by setting is: under setting [1], 0.164; under setting [2], 0.132; under setting [3], 1.27. The concentration at half-maximal activity (AC50) under setting [5] was 0.00148 µM [rising, full curve].
`CN(C(Cc1ccc(OS(=O)(=O)c2cccc3cnccc23)cc1)C(=O)N1CCN(c2ccccc2)CC1)S(=O)(=O)c1cccc2cnccc12` (stereo not drawn) registered a z-score under setting [1] of 0.0214, a z-score under setting [2] of 0.246 and a z-score under setting [3] of 0.457. Moreover, the half-maximal activity concentration (AC50) under setting [4] is 20.9 µM [falling, partial curve].
Turning to `CC(C=CC1=C(C)CCCC1(C)C)=CC=CC(C)=CC(=O)O`, the z-score is, setting by setting: under setting [1], 0.185 and -0.121; under setting [2], 0.499 and 0.972; under setting [3], -0.514 and 0.196. Also, the AC50 under setting [4] was 33.2 µM [falling, single point] and 20.9 µM [falling, partial curve, poor fit].
`CNNCc1ccc(C(=O)NC(C)C)cc1`: the z-score was determined as 1.05 under setting [1], 2.68 under setting [2] and 1.2 under setting [3]. Besides, the AC50 under setting [5] was 0.209 µM [falling, partial curve, poor fit].
